Consider 37 variants from the supplement of paper PMC6445147.

B1: human tRNA-Pro; a variant is named by its letters at N, in order (parent)
chain: GGCTCGTTGGTCTAGNGGTATGATTCTCGCTTAGGGTGCGAGAGGTCCCGGGTTCNNATCCCGGACGAGCCC

Single values of this data set are uncertain.

In this data set the parent is B1. Put plainly: tRNA 5' processing efficiency (processed reads / all reads, maximum-likelihood estimate) (fraction); higher = more efficient 5' processing. As to conditions: HEK293T; construct: CMV Pol-II promoter ((+)CMV library, decapped).
Take GGCTCGTTGGTCTAGGGGGATGATTCTCGCTTAGGGTGCGAGAGGTCCCGGGATTAGATCCCGGACGAGCCC [GAG T19G T53A C55T]: the “tRNA 5' processing efficiency” value was 0.2.

Consider GGCTCGTTGGTCTTTTGGTATGATTCTCGCTTAGGGTGCGAGAGGTCCCGGGTTGATATCCCGGACGAGCCC [TAT A14T G15T C55G], for which the “tRNA 5' processing efficiency” value is 0.17.

Take GGCTCGTTGGTCTAGGGGTATGATTCTCGCTTAGGGTGCGAGAGGTCCCGGGTTCAGCGCCCGGACGAGCCC [GAG A58C T59G]: the “tRNA 5' processing efficiency” value was 0.25.

For GGCTCGTTGGTCTAGAGATATGATTCTCGCTTAGGGTGCGAGAGGTCCCGGGGTCAGATCCCGGACGAGCCC [AAG G18A T53G], the “tRNA 5' processing efficiency” value was 0.67.

In the case of GGCTCGTTGGTCTAGGGGGATGATTCTCGCTTAGGGTGCGAGAGGTCCCGGGTTGAGACCCCGGACGAGCCC [GAG T19G C55G T59C], the “tRNA 5' processing efficiency” value was 0.25.

Turning to GGCTCGTTGGTCTAGGTGGATGATTCTCGCTTAGGGTGCGAGAGGTCCCGGGTTTAGGTCCCGGACGAGCCC [GAG G17T T19G C55T A58G], the “tRNA 5' processing efficiency” value was 0.25.

On to GGCTCGTAGGTCTAGGGGGTTGATTCTCGCTTAGGGTGCGAGAGGTCCCGGGTCCAGACCCCGGACGAGCCC [GAG T8A T19G A20T T54C T59C], for which the “tRNA 5' processing efficiency” value was 0.11.

In the case of GGTTCGTTGGTCTAGTGCTATGATTCTCGCTTAGGGTGCGAGAGGTCCCGGCTTTATATCCCGGACGAGCCC [TAT C3T G18C G52C C55T], the “tRNA 5' processing efficiency” value is 0.17.

For GGCTCGTTGGTCTAGGGGTATGATTCTCGCTTAGGGTGCGAGAGGTCCCGGGTTAATATCCCGGACGAGCCC [GAT C55A], the “tRNA 5' processing efficiency” value was 0.57.

On to GGCTCGTTGGTCTATGGCAATGATTCTCGCTTAGGGTGCGAGAGGTCCCGGGTTCAGATCCCGGACGAGCCC [GAG G15T G18C T19A], for which the “tRNA 5' processing efficiency” value was 0.4.

Turning to GGCTCGTTGGTCTAGGGTTGTGATTCTCGCTTAGGGTGCGAGAGGTCCCGGGCGCAGCTCCCGGACGAGCCC [GAG G18T A20G T53C T54G A58C], the “tRNA 5' processing efficiency” value was 0.25.

As to GGCTCGTTGGTCTACGGGTCTGATTCTCGCTTAGGGTGCGAGAGGTCCCGGGTTCAGATCCCGGACGAGCCC [GAG G15C A20C], the “tRNA 5' processing efficiency” value is 0.25.

GGCTCGTTGGTCTTGGTGTATGATTCTCGCTTAGGGTGCGAGAGGTCCCGGGTTCAGATCCCGGACGAGCCC [GAG A14T G17T]: the “tRNA 5' processing efficiency” value was 0.25.

GGCTCGTCGGTCTAGGTGAATGATTCTCGCTTAGGGTGCGAGAGGTCCCGGGTTCAGATCCCGGACGAGCCC [GAG T8C G17T T19A]: the “tRNA 5' processing efficiency” value was 0.44.

Take GGCTCGTAGGTCTGGGGGTATGATTCTCGCTTAGAGTGCGAGAGGTCCCGGGTTCAGATCCCGGACGAGCCC [GAG T8A A14G G35A]: the “tRNA 5' processing efficiency” value was 0.25.

As for GGCTCGTTGGTCTAGCGGTATGATTCTCGCTTAGGGTGCGAGAGGTCCCGGGGTCAGATCCCGGACGAGCCC [CAG T53G], the “tRNA 5' processing efficiency” value is 0.33.

As to GGCTCGTTCGTCTAGGAGTTTGATTCTCGCTTAGGGTGCGAGAGGTCCCGGGTGAAGATCCCGGACGAGCCC [GAG G9C G17A A20T T54G C55A], the “tRNA 5' processing efficiency” value is 0.25.

For GGCTCGTTCGTCTTTGGGCGTGATTCTCGCTTAGGGTGCGAGAGGTCCCGGGTTCAGATCCCGGACGAGCCC [GAG G9C A14T G15T T19C A20G], the “tRNA 5' processing efficiency” value was 0.33.

GGCTCGTAGGTCTAGTGGTATGATTCTCGCTTAGGGTGCGAGAGGTCCCGGGTTCAGATCCCGGACGAGCCC [TAG T8A]: the “tRNA 5' processing efficiency” value is 0.25.

Regarding GGCTCGTTAGTCTAGGGGTATGATTCTCGCTTAGGGTGCGAGAGGTCCCGGGTTCATGCCCCGGACGAGCCC [GAT G9A A58G T59C], the “tRNA 5' processing efficiency” value is 0.5.

Take GGCTCGTTGGTCTAGGGGTTTGATTCTCGCTTAGGGTGCGAGAGGTCCCGGGTTAATATCCCGGACGAGCCC [GAT A20T C55A]: the “tRNA 5' processing efficiency” value is 0.4.

GGCTCGTTGGTCTTGGGGGCTGATTCTCGCTTAGGGTGCGAGAGGTCCCGGGTTCAGCGCCCGGACGAGCCC [GAG A14T T19G A20C A58C T59G]: the “tRNA 5' processing efficiency” value is 0.25.

As for GGCTCGTTGGTCTAGGCGTATGATTCTCGCTTAGGGTGCGAGAGGTCCCGGGTTCAGAGCCCGGACGAGCCC [GAG G17C T59G], the “tRNA 5' processing efficiency” value was 0.25.

Consider GGCTCGTTGGTCTCGGGGTATGATTCTCGCTTAGGGTGCGAGAGGTCCCGGGTGCATATCCCGGACGAGCCC [GAT A14C T54G], for which the “tRNA 5' processing efficiency” value was 0.4.

GGCTCGTTGGTCTAGAGGATTGATTCTCGCTTAGGGTGCGAGAGGTCCCGGGTTAAGATCCCGGACGAGCCC [AAG T19A A20T C55A]: the “tRNA 5' processing efficiency” value was 0.33.

Turning to GGCTCGTTGGTCTAGGTGTATGATTCTCGCTTAGGGTGCGAGAGGTCCCGGGTTTAGAGCCCGGACGAGCCC [GAG G17T C55T T59G], the “tRNA 5' processing efficiency” value is 0.33.

As for GGCTCGTTGGTCTAGGGGTTTGATTCTCGCTTAGGGTGCGAGAGGTCCCGGGTTCATCTCCCGGACGAGCCC [GAT A20T A58C], the “tRNA 5' processing efficiency” value is 0.2.

As for GGCTCGTTGGTCTAGGGGCATGATTCTCGCTTAGGGTGCGAGAGGTCCCGGGTTGAGATCCCGGACGAGCCC [GAG T19C C55G], the “tRNA 5' processing efficiency” value was 0.33.

Take GGCTCGTTGGTCTAGGAGTCTGATTCTCGCTTAGGGTGCGAGAGGTCCCGGGTTCAGCTCCCGGACGAGCCC [GAG G17A A20C A58C]: the “tRNA 5' processing efficiency” value was 0.25.

In the case of GGCTCGTTGGTCTAGAGGTATGATTCTCGCTTAGGGTGCGAGAGGTCCCGGGATTAGATCCCGGACGAGCCC [AAG T53A C55T], the “tRNA 5' processing efficiency” value is 0.25.

Take GGCTCGTTAGTCTTGGGGTATGATTCTCGCTTAGGGTGCGAGAGGTCCCGGGTTCAGATCCCGGACGAGCCC [GAG G9A A14T]: the “tRNA 5' processing efficiency” value is 0.2.

GGCTCGTTGGTCTAGGGGTGTGATTCTCGCTTAGGGTGCGAGAGGTCCCGGGTGCATAGCCCGGACGAGCCC [GAT A20G T54G T59G]: the “tRNA 5' processing efficiency” value is 0.33.

With GGCTCGTGGGTCTAGGAATGTGATTCTCGCTTAGGGTGCGAGAGGTCCCGGGCTCAGATCCCGGACGAGCCC [GAG T8G G17A G18A A20G T53C], the “tRNA 5' processing efficiency” value is 0.2.

Regarding GGCTCGTTGGTCTAGAGGTGTGATTCTCGCTTAGGGTGCGAGAGGTCCCGGGTTCATACCCCGGACGAGCCC [AAT A20G T59C], the “tRNA 5' processing efficiency” value was 0.25.

On to GACTCGTTGGTCTGAGGGAATGATTCTCGCTTAGGGTGCGAGAGGTCCCGGGTCAATAGCCCGGACGAGCCC [GAT G2A A14G G15A T19A T54C C55A T59G], for which the “tRNA 5' processing efficiency” value is 0.25.

Take GGCTCGTCGGTCTAGGGGTATGATTCTCGCTTAGGGTGCGAGAGGTCCCGGGTTCAGAACCCGGACGAGCCC [GAG T8C T59A]: the “tRNA 5' processing efficiency” value is 0.11.

As to GGCTCGTTTGTCTAGGGGTATGATTCTCGCTTAGGGTGCGAGAGGTCCCGGGTACAGGTCCCGGACGAGCCC [GAG G9T T54A A58G], the “tRNA 5' processing efficiency” value was 0.33.
